{
  "sequences": {"note": "Chains of the proteins cited; added tags and fusions are not shown. Residues count along the entry.", "UniProt P33424": "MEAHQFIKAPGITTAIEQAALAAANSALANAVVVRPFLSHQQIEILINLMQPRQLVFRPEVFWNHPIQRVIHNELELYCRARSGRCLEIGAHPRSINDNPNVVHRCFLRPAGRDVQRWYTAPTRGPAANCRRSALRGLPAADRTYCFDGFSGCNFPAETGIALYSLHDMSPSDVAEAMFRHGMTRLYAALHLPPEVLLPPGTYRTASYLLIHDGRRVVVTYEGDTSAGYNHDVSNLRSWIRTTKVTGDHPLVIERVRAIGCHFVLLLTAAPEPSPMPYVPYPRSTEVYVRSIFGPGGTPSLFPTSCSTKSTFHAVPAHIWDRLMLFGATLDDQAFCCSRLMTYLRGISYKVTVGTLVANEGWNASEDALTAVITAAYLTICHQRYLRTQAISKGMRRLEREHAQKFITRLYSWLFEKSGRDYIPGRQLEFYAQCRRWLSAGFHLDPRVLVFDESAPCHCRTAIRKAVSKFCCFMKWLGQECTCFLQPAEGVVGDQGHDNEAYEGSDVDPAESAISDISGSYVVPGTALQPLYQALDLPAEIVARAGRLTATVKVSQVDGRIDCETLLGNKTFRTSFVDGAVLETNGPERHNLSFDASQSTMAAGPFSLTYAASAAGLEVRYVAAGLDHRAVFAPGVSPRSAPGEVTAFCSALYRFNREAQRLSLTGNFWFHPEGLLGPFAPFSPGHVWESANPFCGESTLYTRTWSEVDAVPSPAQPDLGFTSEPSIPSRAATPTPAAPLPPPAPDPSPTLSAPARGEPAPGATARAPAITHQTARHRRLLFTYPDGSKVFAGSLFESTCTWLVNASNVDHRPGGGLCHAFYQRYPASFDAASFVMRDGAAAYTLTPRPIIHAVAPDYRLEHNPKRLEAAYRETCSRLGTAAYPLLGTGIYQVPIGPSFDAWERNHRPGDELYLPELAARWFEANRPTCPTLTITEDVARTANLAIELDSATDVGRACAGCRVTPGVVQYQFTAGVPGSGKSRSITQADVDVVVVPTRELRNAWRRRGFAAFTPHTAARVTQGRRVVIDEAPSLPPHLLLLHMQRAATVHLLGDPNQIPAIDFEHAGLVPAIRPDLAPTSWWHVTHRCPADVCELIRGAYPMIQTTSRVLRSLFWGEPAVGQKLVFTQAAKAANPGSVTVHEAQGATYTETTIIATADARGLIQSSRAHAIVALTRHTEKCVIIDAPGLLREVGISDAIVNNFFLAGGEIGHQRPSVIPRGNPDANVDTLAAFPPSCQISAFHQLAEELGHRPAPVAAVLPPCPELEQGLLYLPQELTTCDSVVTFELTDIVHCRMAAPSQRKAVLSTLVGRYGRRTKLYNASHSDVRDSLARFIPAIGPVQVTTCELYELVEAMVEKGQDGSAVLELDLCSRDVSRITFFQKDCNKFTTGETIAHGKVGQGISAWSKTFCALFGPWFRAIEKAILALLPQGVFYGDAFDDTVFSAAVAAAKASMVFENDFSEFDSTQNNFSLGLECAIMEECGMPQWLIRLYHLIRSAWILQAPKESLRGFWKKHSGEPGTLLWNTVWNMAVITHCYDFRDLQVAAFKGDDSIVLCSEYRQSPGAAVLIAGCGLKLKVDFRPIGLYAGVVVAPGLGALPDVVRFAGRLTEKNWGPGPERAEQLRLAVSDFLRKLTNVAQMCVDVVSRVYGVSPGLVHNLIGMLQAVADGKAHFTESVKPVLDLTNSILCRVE", "UniProt P33426, residues 20-660": "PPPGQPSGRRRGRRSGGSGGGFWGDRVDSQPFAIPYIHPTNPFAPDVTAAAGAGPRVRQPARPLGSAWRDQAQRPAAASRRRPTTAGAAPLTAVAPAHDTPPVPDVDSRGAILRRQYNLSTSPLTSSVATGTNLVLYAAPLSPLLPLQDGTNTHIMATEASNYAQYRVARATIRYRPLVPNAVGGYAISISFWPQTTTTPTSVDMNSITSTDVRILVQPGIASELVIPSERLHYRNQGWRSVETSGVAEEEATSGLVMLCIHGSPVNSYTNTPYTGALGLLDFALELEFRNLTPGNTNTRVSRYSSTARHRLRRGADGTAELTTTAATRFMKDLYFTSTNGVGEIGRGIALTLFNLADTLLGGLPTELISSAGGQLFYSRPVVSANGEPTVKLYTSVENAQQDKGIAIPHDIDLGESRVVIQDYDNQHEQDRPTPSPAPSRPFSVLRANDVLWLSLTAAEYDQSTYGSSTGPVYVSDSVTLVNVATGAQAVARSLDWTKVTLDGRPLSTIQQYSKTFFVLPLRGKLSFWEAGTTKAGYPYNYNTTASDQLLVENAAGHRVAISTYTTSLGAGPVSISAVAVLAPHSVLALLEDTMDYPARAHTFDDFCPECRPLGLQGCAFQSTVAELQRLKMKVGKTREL", "UniProt P07437": "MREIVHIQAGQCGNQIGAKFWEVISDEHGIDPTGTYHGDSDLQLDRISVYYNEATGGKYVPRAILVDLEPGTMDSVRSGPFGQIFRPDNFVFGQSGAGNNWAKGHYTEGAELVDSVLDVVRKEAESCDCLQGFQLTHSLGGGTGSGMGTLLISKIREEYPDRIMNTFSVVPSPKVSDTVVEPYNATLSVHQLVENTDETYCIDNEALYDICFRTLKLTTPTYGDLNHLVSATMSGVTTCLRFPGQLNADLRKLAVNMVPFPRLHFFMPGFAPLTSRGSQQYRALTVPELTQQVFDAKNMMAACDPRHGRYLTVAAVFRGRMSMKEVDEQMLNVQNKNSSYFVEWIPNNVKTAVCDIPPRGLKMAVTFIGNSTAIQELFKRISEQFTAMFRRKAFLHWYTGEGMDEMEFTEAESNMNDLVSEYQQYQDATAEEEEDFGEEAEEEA", "UniProt Q14240": "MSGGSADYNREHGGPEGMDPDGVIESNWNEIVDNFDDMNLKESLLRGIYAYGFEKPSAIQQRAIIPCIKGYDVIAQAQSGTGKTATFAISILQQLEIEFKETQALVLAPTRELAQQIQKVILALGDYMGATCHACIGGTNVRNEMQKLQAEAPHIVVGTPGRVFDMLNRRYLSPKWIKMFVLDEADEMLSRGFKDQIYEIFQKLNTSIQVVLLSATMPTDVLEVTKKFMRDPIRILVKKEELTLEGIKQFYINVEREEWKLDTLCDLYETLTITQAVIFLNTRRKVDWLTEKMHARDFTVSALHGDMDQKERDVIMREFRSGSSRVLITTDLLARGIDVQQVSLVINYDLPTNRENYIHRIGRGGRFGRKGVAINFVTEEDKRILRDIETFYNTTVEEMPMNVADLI", "UniProt P06730": "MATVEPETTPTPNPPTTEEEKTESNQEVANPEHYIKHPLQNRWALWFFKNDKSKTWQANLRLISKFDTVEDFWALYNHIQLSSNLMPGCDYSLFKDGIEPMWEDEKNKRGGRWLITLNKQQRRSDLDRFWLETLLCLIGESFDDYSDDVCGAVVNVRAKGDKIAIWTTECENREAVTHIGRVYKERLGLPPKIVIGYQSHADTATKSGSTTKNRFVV", "UniProt Q15365": "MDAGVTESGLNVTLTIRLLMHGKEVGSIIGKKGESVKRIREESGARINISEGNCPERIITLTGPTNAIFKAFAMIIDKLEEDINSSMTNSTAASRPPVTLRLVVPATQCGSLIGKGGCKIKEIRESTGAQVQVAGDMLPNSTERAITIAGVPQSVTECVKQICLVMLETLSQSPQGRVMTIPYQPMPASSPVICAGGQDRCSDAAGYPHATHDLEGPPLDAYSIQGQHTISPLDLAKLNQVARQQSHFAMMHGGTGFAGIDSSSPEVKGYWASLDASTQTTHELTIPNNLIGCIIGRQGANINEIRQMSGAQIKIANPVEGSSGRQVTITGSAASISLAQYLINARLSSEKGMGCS", "UniProt P68104": "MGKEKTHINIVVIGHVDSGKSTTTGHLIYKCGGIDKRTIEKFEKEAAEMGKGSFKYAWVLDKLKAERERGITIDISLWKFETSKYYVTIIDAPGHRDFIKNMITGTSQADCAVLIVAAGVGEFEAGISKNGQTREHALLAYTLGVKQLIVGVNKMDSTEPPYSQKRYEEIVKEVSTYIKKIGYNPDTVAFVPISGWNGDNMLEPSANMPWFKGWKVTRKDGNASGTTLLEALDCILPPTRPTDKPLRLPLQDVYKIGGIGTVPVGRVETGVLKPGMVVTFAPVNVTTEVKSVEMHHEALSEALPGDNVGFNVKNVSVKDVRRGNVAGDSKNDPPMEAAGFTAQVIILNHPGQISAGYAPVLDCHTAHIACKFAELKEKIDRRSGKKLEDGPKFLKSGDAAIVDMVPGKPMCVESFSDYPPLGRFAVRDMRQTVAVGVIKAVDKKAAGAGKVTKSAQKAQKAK"},
  "source": "paper PMC5781259",
  "key": {"[1]": {"molecular_target": "ORF1-Flag, g-1 HEV ORF1 polypeptide made by in vitro transcription-translation (hepatitis E virus genotype 1) (UniProt P33424)", "test": "pull-down"}, "[2]": {"molecular_target": "ORF1-Flag, g-1 HEV ORF1 polypeptide expressed in Huh7 (hepatitis E virus genotype 1) (UniProt P33424)", "test": "co-IP"}, "[3]": {"molecular_target": "ORF2-Flag, g-1 HEV ORF2 protein expressed in Huh7 (hepatitis E virus genotype 1) (UniProt P33426)", "test": "co-IP"}},
  "note": "Results are given in words; binding and its absence hold for the method and conditions named. Binding seen in cells or lysates may run through a third protein. Some results given as binding are weak or reduced against the parent protein; the word gives no strength.",
  "data": [
    {"substance": "TUBB in Huh7 extract (from UniProt P07437 1-444)", "values": [
      {"measurement": "binding", "setting": "[1]", "result": "binds"},
      {"measurement": "binding", "setting": "[2]", "result": "binds"}
    ]},
    {"substance": "eIF4A2 in Huh7 extract (from UniProt Q14240 1-407)", "values": [
      {"measurement": "binding", "setting": "[1]", "result": "binds"},
      {"measurement": "binding", "setting": "[2]", "result": "binds"}
    ]},
    {"substance": "eIF4E in Huh7 extract (from UniProt P06730 1-217)", "values": [
      {"measurement": "binding", "setting": "[1]", "result": "binds"},
      {"measurement": "binding", "setting": "[2]", "result": "binds"}
    ]},
    {"substance": "PCBP1 in Huh7 extract (from UniProt Q15365 1-356)", "values": [
      {"measurement": "binding", "setting": "[3]", "result": "binds"}
    ]},
    {"substance": "eEF1A1 in Huh7 extract (from UniProt P68104 1-462)", "values": [
      {"measurement": "binding", "setting": "[1]", "result": "binds"},
      {"measurement": "binding", "setting": "[2]", "result": "binds"}
    ]}
  ]
}
